Measurements taken from patent US20260007684A1, “AMIDE DERIVATIVES FOR INHIBITING NLRP3 AND USES THEREOF” (Ventus Therapeutics U.S., Inc., priority 2023, published 2026).
At least one compound was matched to its structure with a doubt left.

Protein sequences, listed by entry. Tags and fused reporters are not part of them.
UniProt Q96P20, whole entry: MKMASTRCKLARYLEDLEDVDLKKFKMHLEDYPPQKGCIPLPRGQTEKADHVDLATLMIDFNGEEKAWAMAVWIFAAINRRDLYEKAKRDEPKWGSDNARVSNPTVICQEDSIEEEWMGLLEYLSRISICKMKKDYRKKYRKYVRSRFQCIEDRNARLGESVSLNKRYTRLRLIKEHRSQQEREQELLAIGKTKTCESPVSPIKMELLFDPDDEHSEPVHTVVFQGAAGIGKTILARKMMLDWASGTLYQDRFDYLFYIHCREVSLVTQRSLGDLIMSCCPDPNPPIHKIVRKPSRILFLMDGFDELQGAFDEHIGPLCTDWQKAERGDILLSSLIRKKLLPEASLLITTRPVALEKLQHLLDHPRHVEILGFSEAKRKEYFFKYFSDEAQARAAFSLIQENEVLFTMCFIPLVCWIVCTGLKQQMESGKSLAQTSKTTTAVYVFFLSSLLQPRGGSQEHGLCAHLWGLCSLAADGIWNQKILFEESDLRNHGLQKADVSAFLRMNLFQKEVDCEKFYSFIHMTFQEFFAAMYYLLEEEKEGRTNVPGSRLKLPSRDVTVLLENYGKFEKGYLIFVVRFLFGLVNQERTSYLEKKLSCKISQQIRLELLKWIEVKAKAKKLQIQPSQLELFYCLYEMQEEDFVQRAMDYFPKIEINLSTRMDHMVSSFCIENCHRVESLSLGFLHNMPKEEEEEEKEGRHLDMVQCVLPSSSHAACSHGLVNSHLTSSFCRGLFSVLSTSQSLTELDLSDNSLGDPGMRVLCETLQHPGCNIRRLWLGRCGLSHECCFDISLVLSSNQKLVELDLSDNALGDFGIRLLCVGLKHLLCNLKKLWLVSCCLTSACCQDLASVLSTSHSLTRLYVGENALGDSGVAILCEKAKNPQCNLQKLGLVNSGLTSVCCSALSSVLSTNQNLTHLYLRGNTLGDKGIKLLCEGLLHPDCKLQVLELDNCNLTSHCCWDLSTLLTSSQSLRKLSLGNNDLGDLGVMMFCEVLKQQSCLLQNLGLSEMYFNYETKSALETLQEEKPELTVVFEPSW

Molecular target: human NLRP3 (Homo sapiens (Human), UniProt Q96P20)
Experiment: Scintillation Proximity (SPA) NLRP3 Assay: displacement of 3H-MCC950
Format: binding

In the case of `O=C(Nc1cccc(-c2nnn[nH]2)c1)C1(c2ccc(Cl)cc2)CC1` [Comparative Example B1, N-(3-(1H-tetrazol-5-yl)phenyl)-1-(4-chlorophenyl)cyclopropane-1-carboxamide, reference compound], the “fold increase in binding activity (SPA IC50)” value (from here on “fold increase”) (relative to Comparative Example B2) is reported as 25 fold, the “fold increase” value (relative to Comparative Example D) is reported as 40 fold and the “fold increase” value (relative to Comparative Example E1) is reported as > 60 fold. For the same compound, the “fold increase” value (relative to Comparative Example E2) was > 60 fold.
